Patent US20250025558A1
Results are given in words; binding and its absence hold for the method and conditions named. Some entries that bind do so weakly or less than the wild type.

Amino acid sequences for entries named in this document (tags omitted). A change or cut given only in a name is not applied to a line headed by its entry.
UniProt P10636: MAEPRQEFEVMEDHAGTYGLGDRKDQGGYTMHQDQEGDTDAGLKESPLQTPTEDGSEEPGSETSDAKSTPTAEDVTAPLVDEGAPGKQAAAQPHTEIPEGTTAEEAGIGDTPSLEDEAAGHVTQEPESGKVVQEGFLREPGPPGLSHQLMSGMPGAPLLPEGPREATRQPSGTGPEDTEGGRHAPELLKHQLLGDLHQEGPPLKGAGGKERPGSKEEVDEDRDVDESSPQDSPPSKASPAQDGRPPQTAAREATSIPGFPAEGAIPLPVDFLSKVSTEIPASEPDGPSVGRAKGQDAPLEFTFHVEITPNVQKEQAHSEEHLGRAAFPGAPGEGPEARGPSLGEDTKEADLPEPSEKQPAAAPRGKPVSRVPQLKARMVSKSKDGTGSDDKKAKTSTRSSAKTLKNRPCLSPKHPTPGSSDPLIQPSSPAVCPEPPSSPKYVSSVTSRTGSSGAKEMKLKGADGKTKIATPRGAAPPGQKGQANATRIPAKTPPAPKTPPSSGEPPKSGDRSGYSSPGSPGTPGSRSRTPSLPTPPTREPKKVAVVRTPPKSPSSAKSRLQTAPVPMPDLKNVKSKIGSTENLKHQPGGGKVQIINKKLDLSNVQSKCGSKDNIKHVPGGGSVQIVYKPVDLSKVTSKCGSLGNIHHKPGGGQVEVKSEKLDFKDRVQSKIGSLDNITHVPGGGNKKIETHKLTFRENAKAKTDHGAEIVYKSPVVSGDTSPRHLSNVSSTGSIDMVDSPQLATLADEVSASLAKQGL

How the values were obtained:
[1] = molecular target: Tau, fluorescently labeled (UniProt P10636); experiment: flow cytometry of ATTO-488-labeled Tau on CAR-expressing HMC3 cells
[2] = molecular target: Tau, fluorescently labeled (UniProt P10636); experiment: flow cytometry of ATTO-488-labeled Tau on mixed HMC3 cells expressing CARAβ, CARTau, both or neither

- binding [1]: binds
- binding [2]: binds
B1: anti-Tau CAR with scFv from Gosuranemab (orientation not stated) (protein)
VH: EVHLVESGGALVKPGGSLRLSCAASGFSFSKYGMSWVRQAPGKGLEWVATISSSGSRTYYPDSVKGRFTISRDNAKNTLYLQMNSLRAEDTAMYYCSISWDGAMDYWGQGTTVTVSS
VL: DVVMTQSPLSLPVTLGQPASISCKSSQSIVHSNGNTYLEWYLQKPGQSPQLLVYKVSNRFSGVPDRFSGSGSGTDFTLKISRVEAEDVGTYYCFQGSLVPWAFGGGTKVEIK
